Data on 60 compounds can be found in PubChem BioAssay AID2685 (National Center for Advancing Translational Sciences (NCATS), 2010).

The nature of this experiment: qHTS Assay for Lipid Storage Modulators in Drosophila S3 Cells.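 For cell number change: cells counted by Cell Tracker Red CMTPX staining in the red channel.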 The note with it: BODIPY lipid droplet fluorescence, 18-24 h; for cell number change: measured here: cell count max response, cells fed with added oleic acid. In a few lines:
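Drosophila S3 cells loaded with oleic acid (400 uM, as added) and compounds at several concentrations; lipid droplets imaged by 488-nm laser-scanning cytometry, 500–530 nm intensity and object ratio to cell channel. Percent activity normalized to 20 uM Triacsin C.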
Background: Quantitative high-throughput screening tests each substance at several concentrations.

Setting [1] is: measured here: lipid fluorescence (Fed channel) AC50, cells fed with added oleic acid.
Where [2] appears, read: measured here: cell number channel AC50, cells fed with added oleic acid.

The term AC50 denotes the concentration at which the activity in the assay is half-maximal. A high value points to weaker potency.

Structures are written as SMILES. The list shows a part of the results. These are further read-outs of the screen, such as a control signal, another cell line or another target. No call is given for them. Most of these compounds were active or inconclusive in the main read-out, so they are no random draw. The note in brackets gives the kind of curve behind each potency; many fits are weak.

Consider `O=C(CSc1ncccn1)N/N=C/c1cccc(OC2CSC2)c1`, for which the cell number change was -22.3%. The half-maximal activity concentration (AC50) under setting [1] was 29.1 µM [falling, single point].

As for `O=C(c1cccnc1)N1C2CCC1CC(O)(c1ccc(F)cc1)C2` (stereo not given), the cell number change turned out to be 19.8%. Moreover, the half-maximal activity concentration (AC50) under setting [1] was 0.00461 µM [falling, full curve, poor fit].

As for `Cc1cccc(NC(=O)CN(C)S(=O)(=O)c2cccs2)c1`, the cell number change is -19.1%. The AC50 under setting [1] was 1.84 µM [rising, partial curve].

Take `Cc1ccc(C(=O)NCc2ccc3c(c2)OCO3)cc1S(=O)(=O)N1CCCCC1`: under setting [2], the AC50 was 0.731 µM [rising, partial curve, poor fit].

Take `COc1ccccc1C(=O)Nc1ccc(S(=O)(=O)Nc2cnc3ccccc3n2)cc1`: the cell number change was -2.78%. In addition, under setting [1], the half-maximal activity concentration (AC50) was 29.1 µM [falling, partial curve, poor fit].

In the case of `Cc1ccc(SCC(=O)Nc2ccc(N3CCN(c4ccccc4)CC3)c(F)c2)cc1`, the cell number change was determined as 22.2%.

Consider `CCCOC1CCCN(C(=O)CCc2nnc(CCCCc3ccccc3)o2)C1` (stereo not given), for which the cell number change is -14.4%. For the same compound, the AC50 under setting [1] is 6.51 µM [falling, single point].

Regarding `COc1ccc(OC)c(CN2CCN(C(=O)CCC(=O)c3cccs3)CC2)c1`, the cell number change worked out at 39.9%. In addition, the AC50 under setting [2] was 14.6 µM [rising, partial curve]. Further, the AC50 under setting [1] is 14.6 µM [rising, partial curve].

For the compound `Cc1ccc(C(=O)CSC2=C(C#N)C(c3ccco3)C3=C(CCCC3=O)N2)cc1` (stereo not given), the cell number change was -20.3%. Also, the concentration at half-maximal activity (AC50) under setting [1] is 1.16 µM [rising, single point].

`O=C(NC(c1ccc(Cl)cc1)c1c(O)ccc2ccccc12)c1ccccc1` (stereo not given): the cell number change is -65.4%. For the same compound, the half-maximal activity concentration (AC50) under setting [2] is 0.291 µM [falling, full curve, poor fit]. Moreover, the half-maximal activity concentration (AC50) under setting [1] is 1.03 µM [falling, full curve].

As for `O=C(NC1CCCC1)c1cccc2c1C(=O)c1ccc(N3CCCCC3)cc1S2(=O)=O`, the cell number change was -49.5%. For the same compound, the AC50 under setting [2] was 5.8 µM [falling, full curve].

In the case of `O=C(NCCCc1ccc(F)cc1)C1CCC(=O)N(CCN2CCOCC2)C1` (stereo not given), the cell number change amounted to 24.8%. Further, the half-maximal activity concentration (AC50) under setting [1] is 5.17 µM [falling, partial curve].

Regarding `Nc1ccn(-c2ncc(C(F)(F)F)cc2Cl)c(=O)n1`, the cell number change turned out to be 15.4%. Under setting [2], the AC50 is 0.411 µM [falling, single point].

For the compound `COc1ccc(Cc2nnc(NC(=O)CSc3ccc(C)cc3)s2)cc1OC`, the cell number change is -38.1%. Moreover, the AC50 under setting [2] is 1.16 µM [falling, full curve]. For the same compound, the concentration at half-maximal activity (AC50) under setting [1] was 4.11 µM [falling, partial curve].

For the compound `COc1cc([N+](=O)[O-])ccc1NC(=S)NC(=O)CC(C)(C)C`, the cell number change came to 34.5%. Under setting [1], the AC50 is 23.1 µM [rising, partial curve].

With `CCN(C(=O)c1cccc(Br)c1)C1CCS(=O)(=O)C1` (stereo not given), the cell number change is -8.34%.

For the compound `O=C(CNC(=O)c1ccc(OC(F)F)cc1)Nc1cccc(S(=O)(=O)N2CCCC2)c1`, the cell number change was -50%. Further, the concentration at half-maximal activity (AC50) under setting [2] is 4.61 µM [falling, partial curve, poor fit].

Regarding `CCOc1ccc(C(O)c2nccn2Cc2ccccc2)cc1` (stereo not given), the cell number change is 1.08%. For the same compound, the AC50 under setting [1] is 6.51 µM [rising, single point].

As for `COc1ccc(C2(C(=O)Nc3nncs3)CCCC2)cc1`, under setting [1], the AC50 was 5.8 µM [falling, partial curve].

In the case of `Cc1c(C(=O)OC2CCCC2)[nH]c2c1C(=O)CC(c1ccco1)C2` (stereo not given), the AC50 under setting [2] is 6.51 µM [rising, single point].

Turning to `COc1cc2c(cc1OC)CN(C(=O)CSc1n[nH]c(N)n1)CC2`, under setting [2], the concentration at half-maximal activity (AC50) is 2.06 µM [rising, single point].

As for `COc1ccc(N2CC(C(=O)NC3CC(C)(C)NC(C)(C)C3)CC2=O)cc1` (stereo not given), the cell number change is 21%. In addition, the AC50 under setting [1] was 29.1 µM [falling, single point].

Take `CSc1ccc2c(c1)C(N1CCN(C)CC1)Cc1ccccc1S2` (stereo not given): the cell number change is -19.9%. Moreover, the concentration at half-maximal activity (AC50) under setting [1] was 7.31 µM [falling, partial curve].

On to `CC(C)CC(c1nnnn1C1CCCCC1)N1CCN(c2ncccn2)CC1` (stereo not given), for which the cell number change amounted to 0.0687%. For the same compound, the AC50 under setting [1] is 0.116 µM [falling, single point].

As to `Cc1ccc2nc3c(cc(C(=O)NCc4ccco4)c(=N)n3C3CCCC3)c(=O)n2c1`, the cell number change turned out to be 10.5%.

Turning to `Cc1ccc(Nc2cc(C)nc3ccc(C)cc23)cc1`, the cell number change is -10.2%. The AC50 under setting [1] is 18.4 µM [falling, single point].

As for `CC(C(=O)NCC1CCCCC1)N1CCN(S(=O)(=O)c2ccccc2F)CC1` (stereo not given), the cell number change is -16.7%. Under setting [2], the AC50 is 6.51 µM [falling, single point]. In addition, the AC50 under setting [1] is 4.11 µM [falling, full curve, poor fit].

Consider `CCOC(=O)C(NC(=O)c1cccnc1)(Nc1cccc(C)n1)C(F)(F)F` (stereo not given), for which the cell number change was -4.42%.

In the case of `C=CCN1CCN(C(=O)c2ccc3c(c2)OCO3)CC1`, the cell number change is 22.1%. In addition, the AC50 under setting [1] is 0.0731 µM [rising, full curve].

On to `CC(C)c1ccccc1OCC(=O)Nc1ccc2[nH]ncc2c1`, for which the cell number change is -27.1%. Moreover, the AC50 under setting [1] is 6.51 µM [rising, single point].

As for `Cc1c(C(=O)NCc2cccs2)oc2ccc(Br)cc12`, the cell number change came to 6.71%.

For the compound `CCNC(=O)N1CCN(S(=O)(=O)c2ccc3c(c2)OCCCO3)CC1`, the cell number change is 13.1%. Further, the AC50 under setting [1] was 2.06 µM [rising, single point].

As for `O=C(N/C(=C\c1cccnc1)C(=O)N1CCC(O)CC1)c1ccccc1`, the cell number change came to 21.8%. Under setting [1], the concentration at half-maximal activity (AC50) is 0.206 µM [rising, single point].

As to `COc1ccc(OC)c(NC2=NC3(CCCCC3)N=C(N)N2)c1`, the cell number change is -0.547%. Besides, under setting [1], the half-maximal activity concentration (AC50) was 4.11 µM [falling, full curve, poor fit].

Consider `CCOC(=O)Cn1c(C)c(Br)c(COC)c(C#N)c1=O`, for which the cell number change was found to be 19.4%. The half-maximal activity concentration (AC50) under setting [2] is 1.16 µM [rising, full curve, poor fit]. For the same compound, the AC50 under setting [1] was 29.1 µM [rising, single point].

For the compound `C/C(N)=C(/C#N)C(=O)COC(=O)CCS(=O)(=O)c1ccccc1`, the cell number change was -39.7%. Besides, under setting [2], the AC50 was 5.17 µM [falling, full curve]. Also, the AC50 under setting [1] was 18.4 µM [falling, partial curve].

Regarding `CCOC(=O)c1c(NC(=O)c2ccoc2C)sc(C)c1C`, the cell number change was found to be 28%. In addition, under setting [2], the concentration at half-maximal activity (AC50) is 1.16 µM [rising, full curve, poor fit]. The AC50 under setting [1] is 1.64 µM [rising, partial curve].

For the compound `NS(=O)(=O)c1ccc(CCNC(=O)c2ccc(Cl)cc2[N+](=O)[O-])cc1`, the cell number change amounted to 18.5%.

For `Cc1cccc(C(=O)OCC(=O)Nc2c(C)nn(-c3ccccc3)c2C)c1O`, the cell number change was -50%. For the same compound, the AC50 under setting [2] was 29.1 µM [falling, single point].

In the case of `Cc1ccc(C2=NN3C(C(=O)c4ccccc4)Oc4ccccc4C3C2)cc1` (stereo not given), the cell number change is -5.07%.

`O=C1C2CC=CCC2C(=O)N1c1ccc(NCCc2cccc(F)c2)c([N+](=O)[O-])c1` (stereo not given): the cell number change turned out to be 7.43%. For the same compound, the half-maximal activity concentration (AC50) under setting [1] was 0.651 µM [rising, full curve, poor fit].

On to `COC(=O)C(NC(=O)CCc1c(C)nc2ncnn2c1C)C(C)C` (stereo not given), for which the cell number change came to 17.6%. Under setting [1], the AC50 was 29.1 µM [falling, single point].

On to `COc1ccc(/C=N/NC(=O)c2ccccc2OCc2ccccc2)c(OC)c1`, for which the cell number change was 13.6%.

`O=C(Nc1ccc(OC(F)F)c(Cl)c1)Nc1ccc2c(c1)OCO2`: the cell number change worked out at 10.6%. For the same compound, under setting [2], the AC50 is 0.058 µM [rising, full curve, poor fit].

As for `CCc1cc(C(=O)N2CCN(c3ccccn3)CC2)sc1C`, the cell number change was -3.19%. The half-maximal activity concentration (AC50) under setting [1] was 32.6 µM [falling, single point].

Regarding `CCCCN1C(=O)/C(=C/C=C2/CC(C)(C)CN2C)SC1=S`, the AC50 under setting [1] is 5.8 µM [falling, full curve, poor fit].

Regarding `COCCNC(=O)Cc1c(C)c2c(cc(C)c3c(C(C)(C)C)coc32)oc1=O`, the cell number change is -54.8%. Further, the AC50 under setting [2] was 11.6 µM [falling, partial curve]. In addition, under setting [1], the AC50 is 9.2 µM [falling, partial curve].

For `O=C(Nc1ccccc1Cl)c1ccn[nH]1`, the cell number change is -7.9%.

Turning to `COC(=O)c1sc(N)c(C(=O)OC)c1COC(=O)CNS(=O)(=O)c1ccc(C)cc1`, the cell number change worked out at 20.6%. The AC50 under setting [1] was 4.61 µM [rising, partial curve].

On to `O=c1c2ccccc2ncn1Cc1ccco1`, for which the cell number change is -16.1%. Besides, the half-maximal activity concentration (AC50) under setting [1] was 0.0058 µM [falling, full curve, poor fit].

As to `CC(C)c1ccc(NC(=O)C2CC(=O)N(C(C)C)C2)cc1` (stereo not given), the cell number change is -14.1%. Besides, under setting [2], the concentration at half-maximal activity (AC50) is 0.231 µM [falling, full curve, poor fit]. In addition, the AC50 under setting [1] was 6.51 µM [falling, single point].

With `COC(=O)c1c(NC(=O)Cc2cccs2)sc2c1CCC(C)C2` (stereo not given), the AC50 reads like this: under setting [2], 0.0731 µM [rising, full curve]; under setting [1], 0.206 µM [rising, full curve].

In the case of `O=C(CCN1CCc2ccccc2C1)Nc1ccc2c(c1)OCO2`, the cell number change was determined as 138%. For the same compound, the concentration at half-maximal activity (AC50) under setting [2] is 13 µM [rising, partial curve]. In addition, the AC50 under setting [1] is 29.1 µM [rising, partial curve].

Consider `CCCCN(C(=O)c1ccc(-c2ccc(Cl)cc2)o1)c1c(N)n(CCCC)c(=O)[nH]c1=O`, for which the cell number change is -32.8%. The AC50 under setting [2] was 25.9 µM [falling, partial curve, poor fit].

On to `Cc1ccccc1NC(=O)Cc1nc(COC(=O)c2nc(Cl)ccc2Cl)cs1`, for which the cell number change amounted to 12.3%. Besides, the half-maximal activity concentration (AC50) under setting [1] was 6.51 µM [rising, full curve, poor fit].

As for `CC(C)Oc1ccc(Cc2n[nH]c(=S)n2Cc2ccccc2)cc1Cl`, the cell number change was 5.08%.

For `CCN(CC)C(=S)SCC(=O)Nc1ccc(S(N)(=O)=O)cc1`, the cell number change was determined as 25.9%.

In the case of `Cc1ccc(C(=O)N2CCCC(C(=O)c3ccc(Oc4ccccc4)cc3)C2)cn1` (stereo not given), the cell number change is -42.6%. The half-maximal activity concentration (AC50) under setting [2] was 20.6 µM [falling, partial curve, poor fit]. For the same compound, under setting [1], the concentration at half-maximal activity (AC50) is 14.6 µM [falling, partial curve].

Consider `CC(=O)c1sc(NC(=O)c2cc(-c3ccccc3)nn2-c2ccccc2)nc1C`, for which the cell number change came to 32.5%. In addition, the half-maximal activity concentration (AC50) under setting [2] was 2.31 µM [rising, full curve]. Further, the AC50 under setting [1] is 10.3 µM [rising, partial curve, poor fit].

For `CC1CCCCC1NC(=O)COC(=O)CN1C(=O)c2ccccc2C1=O` (stereo not given), the cell number change was found to be 25.6%.
